Measurements published in PubChem BioAssay AID2685 (National Center for Advancing Translational Sciences (NCATS), 2010).
Out of some 320,000 compounds screened, about 2,100 (0.66%) were called active. Inconclusive means that the source gave no clear call. Such entries were picked first, then a sample of the others. The call rests on the fitted dose curve; in most records, active means well fitted inhibition curve with a large enough effect in the signal ratio, with a control signal flat (not every such curve was filed as active); inconclusive means small, poorly fitted or top-dose-only effect, or effect the other way, or a change in a side signal; inactive means flat fitted curve, though single readings scatter; the % refers to the signal ratio. Where the call is inconclusive, the potency comes from a doubtful curve fit.
On the % scale 0 is the no-effect control and ±100 the full control effect; potency means the concentration at half of the fitted maximal effect.

Experiment: qHTS Assay for Lipid Storage Modulators in Drosophila S3 Cells
Settings: BODIPY lipid droplet fluorescence, 18-24 h, cells fed with added oleic acid; lipid storage change, negative = inhibition: at 46.1 µM (top of the series) unless noted
Summary of the method: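 Drosophila S3 cells loaded with oleic acid (400 uM, as added) and compounds at several concentrations; lipid droplets imaged by 488-nm laser-scanning cytometry, 500–530 nm intensity and object ratio to cell channel. Percent activity normalized to 20 uM Triacsin C.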
For C=C(C)CN(CC)C(=O)CSc1nc(O)cc(=O)n1C1CCCC1, the lipid storage change, negative = inhibition was inconclusive: 34.5%. With Cc1nnnn1/C(=C\c1ccccc1)C(=O)OCC(=O)Nc1cccc(S(=O)(=O)N(C)C)c1 the Potency was active: 3.66 µM. With Cc1cc(=O)c2cccc(Br)c2[nH]1 the lipid storage change, negative = inhibition was inconclusive: 11.5%. In the case of CC(=O)Nc1ccc(S(=O)(=O)N2CCc3ccccc3C2CC(=O)O)cc1 (configuration not stated), the lipid storage change, negative = inhibition is reported as inconclusive: 77.8%. With CC1(C)CC2CC(C)(CN2S(=O)(=O)c2cccc(C(=O)OCC(=O)NC(N)=O)c2)C1 (configuration not stated) the lipid storage change, negative = inhibition was inconclusive: 2.67%. For CCOCCCn1c(=S)[nH]c2cc(C(=O)N3CCN(c4ccccc4)CC3)ccc2c1=O, the lipid storage change, negative = inhibition was inconclusive: -46.8%. For CCOc1ccccc1-c1cc(C(=O)N/N=C(\C)c2cccnc2)c2ccccc2n1, the lipid storage change, negative = inhibition was inconclusive: -100%. For CC(C)c1ccc(NC(=O)C(c2ccccc2)N2CCN(C=O)CC2)cc1 (configuration not stated), the lipid storage change, negative = inhibition was inconclusive: 0.201%. With COc1ccccc1/C=C1\SC(=S)N(CCC(=O)Nc2cccc(O)c2)C1=O the Potency was inconclusive: 0.58 µM [activator, single point]. In the case of Cc1ccc(CNC(=O)COC(=O)CCCOc2ccc(Cl)cc2Cl)cc1, the lipid storage change, negative = inhibition is reported as inconclusive: 5.57%. With O=C(Nc1ncc(Cc2ccccc2)s1)C1CCCO1 (configuration not stated) the lipid storage change, negative = inhibition was inconclusive: -21.3%. For COc1cc(/C=N\NC(=O)c2cccnc2)ccc1OC(=O)c1ccccc1Cl, the Potency was inconclusive: 32.6 µM [falling, partial curve, poor fit]. In the case of Cc1cc(NC(=O)CCC(=O)N(CCC(C)C)C(C(=O)NC2CCCC2)c2ccccc2C)no1 (configuration not stated), the Potency is reported as inconclusive: 0.0517 µM [activator, full curve, poor fit]. With COc1ccc(N2CCN(C(=O)c3oc4c(c3C)C(=O)CCC4)CC2)cc1 the lipid storage change, negative = inhibition was inconclusive: 40.6%. With CC(=O)Nc1ccc(Oc2ccc(NC(C)=O)c(NC(C)=O)c2)cc1 the Potency was inconclusive: 29.1 µM [activator, single point]. With COc1ccc(CC(=O)N2N=C(C)CC2(O)C(F)(F)F)cc1 (configuration not stated) the lipid storage change, negative = inhibition was inconclusive: 19.2%. In the case of CN(C)C=NC(=O)c1cccn1-c1ncc(C(F)(F)F)cc1Cl, the lipid storage change, negative = inhibition is reported as inconclusive: 1.38%. With CC(C)C(c1nnnn1Cc1ccccc1)N1CCC(C(N)=O)CC1 (configuration not stated) the Potency was inconclusive: 2.31 µM [cytotoxic, partial curve]. With COC(=O)c1ccccc1NC(=S)NC(=O)C1CCCCC1 the lipid storage change, negative = inhibition was inconclusive: 5.91%. In the case of O=C(CC(=O)c1ccccc1)Nc1cc(C(F)(F)F)ccc1Cl, the lipid storage change, negative = inhibition is reported as inconclusive: 10.1%. In the case of COc1ccccc1C(=O)Nc1ccnn1C1CCN(Cc2ncc[nH]2)CC1, the lipid storage change, negative = inhibition is reported as inconclusive: -41.3%. For COc1ccc(OC)c(NC(=O)C2CCCCC2)c1, the Potency was inconclusive: 16.4 µM [activator, partial curve]. For COc1ccc(C2=NN(C(=O)CSc3nc4ncc(Cl)cc4[nH]3)C(c3ccco3)C2)cc1 (configuration not stated), the lipid storage change, negative = inhibition was inconclusive: 47.2%. In the case of CCOc1ccc(N=Cc2c(O)n(-c3cccc(C)n3)c(=O)c3ccccc23)cc1, the lipid storage change, negative = inhibition is reported as inconclusive: -1.48%. With O=c1ccc2cc(S(=O)(=O)N3CCN(c4ccccc4)CC3)ccc2[nH]1 the lipid storage change, negative = inhibition was inconclusive: -1.6%. For CN1CCN(Cc2cc(COCc3ccccc3)c3cccnc3c2O)CC1, the lipid storage change, negative = inhibition was inconclusive: -11.2%. For NS(=O)(=O)c1ccc(NC(=O)Nc2ccc3c(c2)OCO3)cc1, the Potency was inconclusive: 0.13 µM [activator, full curve, poor fit]. With O=C(CCN1C(=O)CSc2ccccc21)Nc1cccc(C(F)(F)F)c1 the lipid storage change, negative = inhibition was inconclusive: 4.9%. For CCOc1ccc2ccccc2c1C(=O)N1CCOCC1, the lipid storage change, negative = inhibition was inconclusive: 8.28%. In the case of CCNC(=S)Nc1cc(OCC)c(N2CCOCC2)cc1OCC, the lipid storage change, negative = inhibition is reported as inconclusive: 19.7%. For O=S(=O)(c1cccc(-c2csc(-c3ccccc3)n2)c1)N1CCOCC1, the Potency was inconclusive: 29.1 µM [rising, single point]. In the case of CC(=O)c1ccc(NC(=O)NC2CCCc3ccccc32)cc1 (configuration not stated), the lipid storage change, negative = inhibition is reported as inconclusive: -0.149%. With Cc1cc(N2CCC(N(C)C3CCCC3)CC2)nc2cc(O)ccc12 the lipid storage change, negative = inhibition was inconclusive: -6.4%. In the case of OCC1(Cc2ccccc2)CCN(Cc2ccccn2)CC1, the lipid storage change, negative = inhibition is reported as inconclusive: 0.175%. In the case of COc1ccc(Cl)cc1C(=O)O/N=C(\N)c1ccccn1, the lipid storage change, negative = inhibition is reported as inconclusive: -6.15%. For O=C(CSc1nnc(NC(=O)C2CC2)s1)NCc1cccs1, the lipid storage change, negative = inhibition was inconclusive: 52.7%. With CCc1cc(=O)oc2cc(C)cc(OC(C)C(=O)NCc3cccnc3)c12 (configuration not stated) the Potency was inconclusive: 20.6 µM [falling, partial curve, poor fit]. For CCCCC(=O)N1CCN(c2nc3ccc(Br)cc3s2)CC1, the lipid storage change, negative = inhibition was inconclusive: 5.37%. With COCCNC(=O)c1ccc(CS(=O)(=O)c2ccccc2)o1 the lipid storage change, negative = inhibition was inconclusive: -26%. In the case of CCOC(=O)c1c(/N=C/C2=C(O)CCCC2=O)sc(C)c1C, the Potency is reported as inconclusive: 0.651 µM [activator, full curve]. In the case of O=C(c1ccc(COc2ccccc2)o1)N1CCN(S(=O)(=O)c2ccccc2Cl)CC1, the lipid storage change, negative = inhibition is reported as inconclusive: -1.17%. With COc1cccc(NC(=O)Cn2cc(C(=O)c3ccc(C)cc3)c(=O)c3cc(OC)ccc32)c1 the lipid storage change, negative = inhibition was inconclusive: 39.3%. For CCOC(=O)c1[nH]c2ccc(OC)cc2c1NC(=O)N1CCOCC1, the lipid storage change, negative = inhibition was inconclusive: 17.8%. With O=C(c1c(Cl)cccc1Cl)N1CCN(c2ccccn2)CC1 the lipid storage change, negative = inhibition was inconclusive: 47.1%. For O=C(CCCCCn1c(=S)[nH]c2ccsc2c1=O)NC1CCCCC1, the lipid storage change, negative = inhibition was inconclusive: 3.52%. In the case of O=C(O)c1cc2c(cc1NC(=O)c1c(F)cccc1F)OCCCO2, the lipid storage change, negative = inhibition is reported as inconclusive: -46.5%. For CSc1cc(C)c(OCC(=O)Nc2c(C)nn(C)c2C)c(C)c1, the Potency was inconclusive: 18.4 µM [falling, single point]. For O=C(O)Cn1c(O)c(C=Nc2ccccc2)sc1=S, the lipid storage change, negative = inhibition was inconclusive: -81.6%. In the case of Cc1nc(NC(=O)c2ccccc2)sc1-c1csc(Nc2ccc(F)cc2)n1, the lipid storage change, negative = inhibition is reported as inconclusive: 6.29%. With N#Cc1ccccc1N=C1CCCN1Cc1ccccc1 the lipid storage change, negative = inhibition was inconclusive: 22.7%. In the case of CC1CN(CCOc2ccccc2[N+](=O)[O-])CC(C)O1 (configuration not stated), the Potency is reported as inconclusive: 23.1 µM [falling, single point]. In the case of Cc1cc(NS(=O)(=O)c2ccc(CC(C)C)cc2)no1, the lipid storage change, negative = inhibition is reported as inconclusive: -4.73%. With COc1ccc2oc(C(=O)Nc3cccc(S(=O)(=O)N4CCOCC4)c3)c(C)c2c1 the lipid storage change, negative = inhibition was “inconclusive”. In the case of N=C1/C(=C\c2ccc(Br)o2)C(=O)N=C2SC(CC(=O)N3CCOCC3)=NN12, the Potency is reported as inconclusive: 0.058 µM [activator, full curve, poor fit]. In the case of N#C/C(=N\Nc1ccc(S(=O)(=O)N2CCOCC2)cc1)C(N)=S, the lipid storage change, negative = inhibition is reported as inconclusive: 0.44%. With C[C@@]12C(=O)N(Cc3ccc(Cl)cc3)CC(=O)N1[C@H]1c3ccccc3OC[C@@H]1[C@@H]2c1ccccc1 the lipid storage change, negative = inhibition was inconclusive: 39.4%. For COc1ccc(CCNC(=O)Cn2c(=O)oc3ccccc32)cc1OC, the lipid storage change, negative = inhibition was inconclusive: -25.2%. In the case of CC1CCc2cc(F)ccc2N1C(=O)C12CCC(C)(C(=O)O1)C2(C)C (configuration not stated), the lipid storage change, negative = inhibition is reported as inconclusive: 17.2%. With O=C(NC(=S)NC1CCCc2ccccc21)c1ccc(F)cc1 (configuration not stated) the Potency was inconclusive: 29.1 µM [activator, partial curve]. For COc1ccc(/C=N/N2CCN(c3ccncc3S(=O)(=O)N3CCCCC3)CC2)cc1, the Potency was inconclusive: 6.51 µM [activator, single point]. With COc1ccc(S(=O)(=O)NC(C)C(=O)Nc2ccc3c(c2)OCCO3)cc1OC (configuration not stated) the Potency was inconclusive: 6.51 µM [falling, single point]. For O=C(CN1CCN(S(=O)(=O)N2CCCCCC2)CC1)Nc1ccc(Br)cc1, the lipid storage change, negative = inhibition was inconclusive: -22.1%. With CCN(CC)c1ccc(/C=N/NC(=O)c2cc3ccccc3[nH]2)cc1 the lipid storage change, negative = inhibition was inconclusive: 56.8%. With CCOC(=O)c1ccc(NC(=O)c2cc(C)nc3ccccc23)cc1 the Potency was inconclusive: 6.51 µM [activator, single point]. In the case of NNC(=O)c1nc(-c2cccc(-n3cccc3)c2)no1, the lipid storage change, negative = inhibition is reported as inconclusive: 34%. In the case of CC(=O)N1CCC(N(C(=O)Nc2ccc(F)cc2)C2CCCC2)CC1, the Potency is reported as inconclusive: 29.1 µM [activator, partial curve, poor fit]. For N/C(=N\N=C\c1ccco1)SC1CC(=O)N(c2ccccc2)C1=O (configuration not stated), the lipid storage change, negative = inhibition was inconclusive: -4.44%. With O=C(CN1CCCCC1)NC(=O)Nc1ccccc1F the lipid storage change, negative = inhibition was “inconclusive”. For CCN1C(=NCCN2CCOCC2)N[C@@H](CCc2ccccc2)C(C(=O)OC)=C1C, the Potency was inconclusive: 29.1 µM [falling, single point]. With CCC(C)C1Nc2ccc(C(=O)NCc3ccc4c(c3)OCO4)cc2NC1=O (configuration not stated) the Potency was inconclusive: 1.3 µM [activator, full curve]. For CCc1ccc(NC(=O)c2cnc(N3CCN(c4ccccn4)CC3)c3ccccc23)cc1, the lipid storage change, negative = inhibition was inconclusive: -11.2%. With CCC(=O)Nc1cc(C)c(NC(=O)c2ccccc2OC)cn1 the Potency was inconclusive: 0.731 µM [activator, full curve]. With CCOC(=O)C1=C(COC(=O)/C=C/c2cccc(Br)c2)NC(=O)NC1C (configuration not stated) the Potency was inconclusive: 2.31 µM [falling, full curve]. In the case of O=C(c1cccc(C(F)(F)F)c1)c1c[nH]c(C(=O)NCC2CCCO2)c1 (configuration not stated), the lipid storage change, negative = inhibition is reported as inconclusive: 12.5%. With CC1=NN(c2ccccc2)C(=O)C1C(=O)c1ccc(Cl)cc1 (configuration not stated) the lipid storage change, negative = inhibition was inconclusive: -15.6%. In the case of CN(C)c1ccc(/C=C2\C(=N)N3C(=NC2=O)Sc2cc(S(C)(=O)=O)ccc23)cc1, the Potency is reported as active: 5.8 µM. With O=C(CN1CCN(c2ccccn2)CC1)Nc1cccc(S(=O)(=O)N2CCCC2)c1 the lipid storage change, negative = inhibition was inconclusive: 12.4%.
